# Reference: PubChem BioAssay AID493014 (National Center for Advancing Translational Sciences (NCATS), 2011)
# This is one part of the list. The main result of the screen is listed elsewhere. These columns were measured beside it and carry no call. Most of these compounds were active or inconclusive in the main read-out, so they are no random draw. The note in brackets gives the kind of curve behind each potency; many fits are weak.
# Assay: qHTS Assay to Find Inhibitors of Chronic Active B-Cell Receptor Signaling
# Settings: ABC-DLBCL IkBa-CBG/CBR reporter, luminescence ratio (green luciferase fused to IkBa over red control in TMD8 lymphoma cells), 4 h
# Summary of the method: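 Cell line TMD8 (human ABC DLBCL), stably expressing tet-inducible CBG68-IkBa fusion and CBR; IMDM/0.5% FBS; cpd up to 46 uM; dox induction, 4 h, 37C/5% CO2; dual luminescence; green/red ratio; MG132 control.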
# [1] = measured here: CBR red luminescence, cell number
# [2] = measured here: IkBa-CBG green luminescence
SMILES,AC50 [1],AC50 [2]
CCC(=O)N1CCN(c2ccccc2NC(=O)COc2ccccc2Cl)CC1,"4.61 µM [falling, full curve, poor fit]",
COc1ccc(C2C=C(c3ccccc3)Nc3nnnn32)cc1 (stereo unspecified),"11.2 µM [rising, partial curve, poor fit]",
CCCc1nc2ccccc2c(C(=O)OCC(=O)NCc2ccc3c(c2)OCO3)c1CC,"29.1 µM [falling, single point]",
Cc1ccccc1-c1nsc(SCC(=O)NCc2ccc3c(c2)OCO3)n1,"6.51 µM [falling, partial curve, poor fit]",
CC(=O)c1cccc(N/C=C\C(=O)c2ccc(C)cc2)c1,"32.6 µM [falling, single point]",
Cc1[nH]c2ccccc2c1/C=C/C(=O)c1ccccc1,"4.11 µM [falling, single point]",
Cc1noc(C)c1COc1ccccc1C(=O)N(C)Cc1ccc(C(C)(C)C)cc1,"29.1 µM [falling, single point]",
CCOC(=O)C1CCCN(Cc2cc(OC)c(O)c(OC)c2)C1 (stereo unspecified),"23.1 µM [rising, single point]",
COc1ccccc1N=c1oc2cc(O)ccc2cc1C(=O)NCC1CCCO1 (stereo unspecified),"11.2 µM [falling, partial curve, poor fit]",
CCN(CC)c1ccc(NC(=S)NC(=O)c2cccs2)cc1,"8.91 µM [rising, partial curve, poor fit]",
N/C(=N\OC(=O)Cc1ccccc1)c1ccncc1,"3.16 µM [rising, partial curve, poor fit]",
COc1ccc(-c2nn(Cc3ccccc3)cc2C(=O)N2CCN(c3ncccn3)CC2)cc1OC,"2.91 µM [rising, single point]",
Cc1ccc(S(=O)(=O)Oc2ccc(/C=C(/NC(=O)c3ccccc3)C(=O)NCC(=O)O)cc2)cc1,"39.8 µM [rising, partial curve, poor fit]",
Nc1nnc(CSCc2ccc(Cl)cc2Cl)s1,"6.51 µM [rising, partial curve, poor fit]",
CCc1ccccc1NC(=O)CNC(=O)CCc1nc2sc3c(c2c(=O)[nH]1)CCCC3,"29.1 µM [falling, single point]",
CCN(CC)S(=O)(=O)c1cccc(C(=O)NC(C(=O)NCCc2ccccn2)C(C)C)c1 (stereo unspecified),"4.61 µM [rising, full curve, poor fit]",
COc1ccc(NC(=S)N2CCN(C(c3ccccc3)c3ccccc3)CC2)c(OC)c1,"12.6 µM [falling, single point]","12.6 µM [rising, partial curve, poor fit]"
O=C(COC(=O)c1ccccc1OC(F)F)Nc1ccc2[nH]c(=O)[nH]c2c1,"13 µM [rising, partial curve, poor fit]",
CN(C)C(=O)c1cnc(Sc2ncc(C(F)(F)F)cc2Cl)n1C,"1.03 µM [falling, full curve, poor fit]",
COc1cc(/C=C2\SC(=Nc3ccccc3)N(Cc3ccco3)C2=O)ccc1OC(C)C(=O)O (stereo unspecified),"32.6 µM [falling, single point]",
C=CCNC(=S)NNC(=O)C(CCC(C)C)CC(C)(C)O (stereo unspecified),"32.6 µM [rising, single point]",

SMILES,AC50 [1],AC50 [2]
COc1ccc(OC)c(NC(=O)c2cc3oc4ccccc4c3cc2O)c1,"1.26 µM [falling, full curve, poor fit]",
CCC(C(=O)NC1CCCCC1)N(Cc1cccs1)C(=O)CCC(=O)Nc1cc(C)on1 (stereo unspecified),"35.5 µM [falling, single point]",
Cc1ccc2c(c1)-n1c(nc3ccc(C)cc3c1=O)C(Cc1ccccc1)NC2=O (stereo unspecified),"25.9 µM [falling, partial curve, poor fit]",
CN1CCN(C(=S)NC(=O)c2ccc(-c3ccccc3)cc2)CC1,"22.4 µM [rising, single point]","35.5 µM [falling, partial curve, poor fit]"
CCOC(=O)Cc1csc(Nc2ccc(Cl)cc2)n1,"13 µM [rising, partial curve, poor fit]",
COc1cc([C@@H]2[C@H]3CNCC=C3C(C#N)=C(N)C2(C#N)C#N)ccc1OC(C)C,"1.64 µM [falling, partial curve, poor fit]",
COc1cc2c(cc1NC(=O)CCCCCN1C(=O)CCC1=O)oc1ccccc12,"25.9 µM [falling, partial curve]",
S=C(Nc1ccc(Br)cc1)N1CCn2cccc2C1c1cccnc1 (stereo unspecified),"3.98 µM [rising, single point]",
Cc1ccc(NC(=S)N/N=C/c2c(C)[nH]c3ccccc23)cc1,"12.6 µM [falling, partial curve, poor fit]",
O=S(=O)(NCCc1ccncc1)c1cc(Br)ccc1F,"4.61 µM [falling, single point]",
COc1ccc2c(c1)C(=O)N1[C@H]3c4cc(Cl)ccc4OC[C@@H]3[C@H](c3ccccc3)[C@]1(C)C(=O)N2,"2.91 µM [falling, partial curve]",
COc1ccccc1N1CCN(C(=O)CSc2ncccc2-c2nc3ccccc3[nH]2)CC1,"2.91 µM [falling, full curve]",
COc1ccc(C(=O)O)c(OC)n1,"20 µM [falling, partial curve, poor fit]",
CC(C)COc1cccc(C(=O)Nc2ccc(N3CCOCC3)cc2N2CCOCC2)c1,"6.51 µM [rising, partial curve, poor fit]",
O=C(Nc1ccc2ccccc2c1)c1cnccn1,"18.4 µM [falling, partial curve]",
Cc1noc(/C=C/NCc2cccnc2)c1S(=O)(=O)N(C)CC(=O)N1CCc2ccccc21,"3.66 µM [falling, full curve, poor fit]",
COc1ccc(C2NC3=C(CCC3)C3(C#N)C(OC)(OC)N=C(N)C23C#N)cc1 (stereo unspecified),"31.6 µM [falling, single point]",
COc1ccc(C2C(C(=O)c3cccs3)=C(O)C(=O)N2c2cccc(C)n2)cc1OC (stereo unspecified),"11.2 µM [rising, partial curve, poor fit]",
CC(OC(=O)CCc1nc2ccccc2c(=O)[nH]1)C(=O)Nc1cccc(C(F)(F)F)c1 (stereo unspecified),"5.8 µM [rising, full curve]",
Cc1cc(NC(=O)COC(=O)C2CCC(=O)N2)c([N+](=O)[O-])cc1C (stereo unspecified),"12.6 µM [rising, single point]",
C/C(=N\NC(=O)c1ccc(O)cc1)c1ccc(N2CCOCC2)cc1,"2.24 µM [falling, full curve, poor fit]",

# Filtered by structure, the compounds so far containing two or more sulfur atoms
SMILES,AC50 [1],AC50 [2]
Cc1ccccc1-c1nsc(SCC(=O)NCc2ccc3c(c2)OCO3)n1,"6.51 µM [falling, partial curve, poor fit]",
CCN(CC)c1ccc(NC(=S)NC(=O)c2cccs2)cc1,"8.91 µM [rising, partial curve, poor fit]",
Nc1nnc(CSCc2ccc(Cl)cc2Cl)s1,"6.51 µM [rising, partial curve, poor fit]",

# Continued.

SMILES,AC50 [1],AC50 [2]
O=C(CSc1ccc(Cl)cc1)NC1CCCc2ccccc21 (stereo unspecified),"18.4 µM [rising, partial curve, poor fit]",
O=C(COc1ccc(Cl)cc1Cl)NN=C1c2ccccc2-c2ccccc21,"1.3 µM [rising, full curve]",
O=C(c1ccsc1)N1CCCC(N2CCN(c3cccc(C(F)(F)F)c3)CC2)C1 (stereo unspecified),"25.1 µM [falling, single point]",
CCCc1n[nH]c(=S)n1Cc1ccco1,"1.58 µM [rising, partial curve, poor fit]",
O=C(Nc1ncc(Cl)cn1)c1cccs1,"11.6 µM [falling, partial curve, poor fit]",
COc1ccc(CC(=O)Nc2cccc(Cl)c2C)cc1S(=O)(=O)N1CCOCC1,"0.517 µM [rising, full curve, poor fit]",
CC(C)n1nc(C(=O)Nc2nnc(C3CC3)s2)c2ccccc2c1=O,"12.6 µM [rising, single point]",
Cc1cc(F)ccc1S(=O)(=O)Nc1ncnc2sc3c(c12)CCC3,"2.82 µM [falling, full curve]",
O=[N+]([O-])c1cc(Cl)cc(/C=N/NC(=S)Nc2ccc(S(=O)(=O)N3CCOCC3)cc2)c1O,"15.8 µM [falling, single point]",
Oc1ccc(/C(Cc2ccc3ccccc3n2)=N\Nc2ccccc2)c(O)c1,"7.08 µM [falling, full curve]",
CC1(C(=O)NCCc2c[nH]c3ccccc23)C=CC2(CCCCC2)N1C(=O)c1ccccc1 (stereo unspecified),"0.501 µM [falling, full curve, poor fit]",
COC(=O)C(C)Sc1n[nH]c(=S)s1 (stereo unspecified),"20.6 µM [rising, single point]",
COc1ccc(CN2CCOCC2)c(C)c1C,"29.1 µM [rising, single point]",
Cc1cc(C)c2nc(C)cc(N/N=C/c3ccc(O)cc3)c2c1,"10 µM [falling, partial curve]",
CN(c1ccccc1)S(=O)(=O)c1ccc(C(=O)NCc2cccs2)cc1,"6.31 µM [rising, partial curve]",
COc1ccc(/C=C/C(=O)NC(=S)N2CCSCC2)cc1,,"35.5 µM [falling, single point]"
O=C(/C=C/c1ccc2c(c1)OCCCO2)c1ccc2ccccc2c1O,"6.51 µM [rising, partial curve]",
C/C(=N\NC(=O)c1ccccc1O)c1ccc(NC(=O)c2ccccc2)cc1,"3.16 µM [falling, full curve]",
Cc1ccccc1OCCc1c(C)[nH]c(=S)[nH]c1=O,"3.98 µM [rising, full curve]","10 µM [falling, partial curve]"
COc1cc(/C=N/N=C2/C(=O)Nc3ccccc32)ccc1O,"29.1 µM [falling, single point]",
CO/N=C/c1cn(-c2ccc(Cl)cc2)nn1,"35.5 µM [rising, single point]",
